Assay results published in patent US20260168988A1, “GENETICALLY ENCODED REPORTER EXPRESSION SYSTEMS AND METHODS OF MAKING AND USING SAME” (Duke University, priority 2021, published 2026).
At least one structure is not confirmed: it was looked up by name or label, or the drawing left a doubt.

System: APO1-YTH
Assay: Inducible APO1-YTH expression in HEK293T stable m6A reporter cell lines
Type: cell-based
Description: HEK293T stable cells were generated which express both the m^6A reporter and APO1-YTH. The m^6A reporter was constitutively expressed from the CMV reporter, while APO1-YTH was inducibly expressed after treatment of cells with doxycycline (dox).
Cyclophilin A (CycloA) is shown as a loading control.
Another embodiment of the present disclosure provides stable cell lines that express the m^6A reporter system as provided herein. To do this, stable cell lines expressing both the m^6A reporter and APO1-YTH were generated by transfecting HEK293T cells with a dual-promoter plasmid encoding both components of the reporter system. This plasmid drives m^6A reporter expression from the CMV promoter and APO1-YTH expression using an inducible […] promoter. However, any dual-promoter system could also be used and different promoters (inducible and constitutive) could also be used with this m^6A reporter system. The m^6A reporter system provided herein may also be applied in other mammalian and non-mammalian cell types as well.
Following selection of stable cells with puromycin resistance which was conferred by genomic integration of the plasmid, it was next sought to confirm that the reporter system works in the context of stable integration of the m^6A reporter and APO1-YTH components. […] In some embodiments, the stable cell lines, such as those generated here, can be used in high-throughput screens for m^6A inhibitors or in screens designed to identify proteins or other molecules that influence RNA methylation in cells (such as screens involving sgRNA libraries targeting endogenous cellular genes).

[1] = HEK293T stable cell lines, 1 ug/mL doxycycline, vs DMSO

C[C@H]1c2cccc(O)c2C(=O)C2=C(O)[C@]3(O)C(=O)C(C(N)=O)=C(O)[C@@H](N(C)C)[C@@H]3[C@@H](O)[C@@H]21 [doxycycline]
APO1-YTH protein induction [1]: induction of APO1-YTH protein | EGFP fluorescence [1]: EGFP fluorescence | APO1-YTH protein induction (HEK293T stable cell lines, 1 ug/mL doxycycline, vs DMSO, listed as dox): induction of APO1-YTH | EGFP expression (Western blot) (dox-treated HEK293T stable cells): EGFP expression
